According to US6506889 (UNIVERSITY TECHNOLOGY, dated 2003):
These are yes or no findings as the source states them, for the method shown. For some of these results: Binding calls can cover weak binding; strength is not graded here. Sequences can lack the tags named with a protein.

Legend:
[1] = molecular target: KSR-1 (yeast two-hybrid fusion) (C. elegans); experiment: yeast two-hybrid, His and LacZ reporters
[2] = molecular target: KSR-1 (yeast two-hybrid fusion) (C. elegans); experiment: yeast two-hybrid
[3] = molecular target: LET-60 Ras with deletion of the membrane targeting region, yeast two-hybrid fusion; experiment: yeast two-hybrid

B1: C. elegans SUR-8 fused to the GAL4 activation domain (other, not shown: large carriers)
chain: METSKEFEFRPAKETSRSKSPGGIVGRLSNFARNKARHSLSEKGSNSVGGSGGAGFDKPRKDLLKEFHKCKEAQDQRLDLSSIEITSIPSPIKELTQLTELFLYKNKLTCLPTEIGQLVNLKKLGLSENALTSLPDSLASLESLETLDLRHNKLTEVPSVIYKIGSLETLWLRYNRIVAVDEQIGNLSKLKMLDVRENKIRELPSAIGKLTSLVVCLVSYNHLTRVPEEIGDCHSLTQLDLQHNDLSELPYSIGKLVNLVRIGIRYNKIRCIPSELESCQQLEEFIVESNHLQLLPPNLLTMLPKIHTVNLSRNELTAFPAGGPQQFVSTVTINMEHNQISKIPIGIFSKATRLTKLNLKENELVSLPLDMGSWTSITELNLSTNQLKVLPEDIEKLVNLEILVLSNNQLKKLPNQIGNLNKLRELDLEENELETVPTEIGFLQHLTKLWVQSNKILTLPRSIGNLCSLQDLRLGENNLTAIPEEIGHLDSLKSLYLNDNSSLHNLPFELALCQSLEIMSIENSPLSQIPPEITAGGPSLVIQYLKMQGPYRGVVMNSQ
notes: Yeast two-hybrid construct: 1.7 kb sur-8 cDNA cloned in-frame into pACT2; also called Ce SUR-8; wild-type SUR-8
[1]
  binding: no binding
[2]
  binding: no binding
[3]
  binding: binds

B2: wild type LIN-45 Raf (yeast two-hybrid fusion) (enzyme, C. elegans, UniProt Q07292 1-813, looked up, not shown: large carriers)
chain: MSRINFKKSSASTTPTSPHCPSPRLISLPRCASSSIDRKDQASPMASPSTPLYPKHSDSLHSLSGHHSAGGAGTSDKEPPKFKYKMIMVHLPFDQHSRVEVRPGETARDAISKLLKKRNITPQLCHVNASSDPKQESIELSLTMEEIASRLPGNELWVHSEYLNTVSSIKHAIVRRTFIPPKSCDVCNNPIWMMGFRCEFCQFKFHQRCSSFAPLYCDLLQSVPKNEDLVKELFGIASQVEGPDRSVAEIVLANLAPTSGQSPAATPDSSHPDLTSIKRTGGVKRHPMAVSPQNETSQLSPSGPYPRDRSSSAPNINAINDEATVQHNQRILDALEAQRLEEESRDKTGSLLSTQARHRPHFQSGHILSGARMNRLHPLVDCTPLGSNSPSSTCSSPPGGLIGQPTLGQSPNVSGSTTSSLVAAHLHTLPLTPPQSAPPQKISPGFFRNRSRSPGERLDAQRPRPPQKPHHEDWEILPNEFIIQYKVGSGSFGTVYRGEFFGTVAIKKLNVVDPTPSQMAAFKNEVAVLKKTRHLNVLLFMGWVREPEIAIITQWCEGSSLYRHIHVQEPRVEFEMGAIIDILKQVSLGMNYLHSKNIIHRDLKTNNIFLMDDMSTVKIGDFGLATVKTKWTVNGGQQQQQPTGSILWMAPEVIRMQDDNPYTPQSDVYSFGICMYEILSSHLPYSNINNRDQILFMVGRGYLRPDRSKIRHDTPKSMLKLYDNCIMFDRNERPVFGEVLERLRDIILPKLTRSQSAPNVLHLDSQYSVMDAVMRSQMLSWSYIPPATAKTPQSAAAAAAANKKAYYNVYGLI
[3]
  binding: binds
